For at least one entry, the source does not settle the construct or the ends of the probe. Protein sequences can lack the tags named with them.

This note sets out measurements from patent US20120309759.

Series [1] relates to T1, TERT (full-length telomerase catalytic subunit) (Tribolium castaneum).
T1 sequence: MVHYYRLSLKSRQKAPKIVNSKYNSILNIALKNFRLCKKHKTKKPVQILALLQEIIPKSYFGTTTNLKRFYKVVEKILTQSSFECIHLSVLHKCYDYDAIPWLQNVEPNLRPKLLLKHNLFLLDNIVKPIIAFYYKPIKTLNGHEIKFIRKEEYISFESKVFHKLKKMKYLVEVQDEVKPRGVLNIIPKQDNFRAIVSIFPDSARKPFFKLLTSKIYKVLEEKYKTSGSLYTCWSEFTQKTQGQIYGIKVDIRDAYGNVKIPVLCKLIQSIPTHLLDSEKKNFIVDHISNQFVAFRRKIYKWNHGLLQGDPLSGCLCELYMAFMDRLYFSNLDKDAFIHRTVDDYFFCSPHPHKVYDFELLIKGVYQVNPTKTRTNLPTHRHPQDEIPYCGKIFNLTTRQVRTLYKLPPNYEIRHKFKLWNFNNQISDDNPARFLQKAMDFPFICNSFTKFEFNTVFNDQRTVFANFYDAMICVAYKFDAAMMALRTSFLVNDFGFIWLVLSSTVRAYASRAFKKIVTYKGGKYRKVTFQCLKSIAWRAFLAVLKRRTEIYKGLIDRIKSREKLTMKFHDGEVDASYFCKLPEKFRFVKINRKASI
The experiment in a line: structure. The settings on record: chimera: RNA rCrUrGrArCrCrU template, linker u:rGrArC RNA, remainder DNA; 2.7 A co-crystal structure with Mg2+ and dNTPaS; 3' end extended by three nucleotides in the drop; same affinity stated for all three hairpins; purified recombinant protein; protein details: N-terminal His6 cleaved with TEV.

For series [2] the test system is unchanged. The series can be described thus: binding assay. The settings on record: chimera: RNA rCrUrGrArCrCrU, remainder DNA, stated same binding affinity and RT activity as the 21mer, no value given, purified recombinant protein, protein details: N-terminal His6 cleaved with TEV.

For “CUGACCUGACTTCGGTCAGGT [21mer RNA-DNA hairpin (Chim21m)]”, in series [1], the binding result was “binds”.
With “CUGACCUGTTCGCAGGT [17mer RNA-DNA hairpin]”, in series [2] (linker u:rG, text calls it 18mer), the binding result is “binds”.
As for CUGACCUTTCGAGGT [15mer RNA-DNA hairpin], the binding result in series [2] (linker u) is given as “binds”.
